Measured values published in paper PMC8047154.
Results are given in words; binding and its absence hold for the method and conditions named. Binding seen in cells or lysates may run through a third protein. Some binding calls cover weakened binding; strength is not graded here.

Chains of the proteins cited; added tags and fusions are not shown. Residues count along the entry.
UniProt P19491, residues 22-883: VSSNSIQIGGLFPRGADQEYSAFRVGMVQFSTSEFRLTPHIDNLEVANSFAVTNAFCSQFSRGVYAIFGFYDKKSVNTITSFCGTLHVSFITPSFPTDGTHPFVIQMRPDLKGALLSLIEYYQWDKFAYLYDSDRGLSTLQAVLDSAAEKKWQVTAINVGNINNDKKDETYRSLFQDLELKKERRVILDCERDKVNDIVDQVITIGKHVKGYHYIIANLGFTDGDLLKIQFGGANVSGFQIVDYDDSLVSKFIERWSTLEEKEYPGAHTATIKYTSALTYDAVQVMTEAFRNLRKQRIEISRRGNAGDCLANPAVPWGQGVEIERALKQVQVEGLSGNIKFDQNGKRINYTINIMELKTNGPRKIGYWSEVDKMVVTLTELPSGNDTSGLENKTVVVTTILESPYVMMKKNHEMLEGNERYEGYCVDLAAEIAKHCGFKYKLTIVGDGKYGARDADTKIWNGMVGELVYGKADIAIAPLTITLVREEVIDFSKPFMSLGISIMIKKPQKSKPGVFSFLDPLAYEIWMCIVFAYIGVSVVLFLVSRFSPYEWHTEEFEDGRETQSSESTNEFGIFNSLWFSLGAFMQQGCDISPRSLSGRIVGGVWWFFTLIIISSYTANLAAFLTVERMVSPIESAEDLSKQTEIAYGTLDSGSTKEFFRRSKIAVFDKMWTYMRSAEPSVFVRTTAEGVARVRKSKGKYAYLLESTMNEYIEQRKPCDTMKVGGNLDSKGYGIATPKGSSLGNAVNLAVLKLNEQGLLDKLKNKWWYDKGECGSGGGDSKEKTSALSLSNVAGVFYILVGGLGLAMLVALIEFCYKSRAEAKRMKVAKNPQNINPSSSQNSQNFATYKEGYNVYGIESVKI
UniProt P19492, residues 23-888: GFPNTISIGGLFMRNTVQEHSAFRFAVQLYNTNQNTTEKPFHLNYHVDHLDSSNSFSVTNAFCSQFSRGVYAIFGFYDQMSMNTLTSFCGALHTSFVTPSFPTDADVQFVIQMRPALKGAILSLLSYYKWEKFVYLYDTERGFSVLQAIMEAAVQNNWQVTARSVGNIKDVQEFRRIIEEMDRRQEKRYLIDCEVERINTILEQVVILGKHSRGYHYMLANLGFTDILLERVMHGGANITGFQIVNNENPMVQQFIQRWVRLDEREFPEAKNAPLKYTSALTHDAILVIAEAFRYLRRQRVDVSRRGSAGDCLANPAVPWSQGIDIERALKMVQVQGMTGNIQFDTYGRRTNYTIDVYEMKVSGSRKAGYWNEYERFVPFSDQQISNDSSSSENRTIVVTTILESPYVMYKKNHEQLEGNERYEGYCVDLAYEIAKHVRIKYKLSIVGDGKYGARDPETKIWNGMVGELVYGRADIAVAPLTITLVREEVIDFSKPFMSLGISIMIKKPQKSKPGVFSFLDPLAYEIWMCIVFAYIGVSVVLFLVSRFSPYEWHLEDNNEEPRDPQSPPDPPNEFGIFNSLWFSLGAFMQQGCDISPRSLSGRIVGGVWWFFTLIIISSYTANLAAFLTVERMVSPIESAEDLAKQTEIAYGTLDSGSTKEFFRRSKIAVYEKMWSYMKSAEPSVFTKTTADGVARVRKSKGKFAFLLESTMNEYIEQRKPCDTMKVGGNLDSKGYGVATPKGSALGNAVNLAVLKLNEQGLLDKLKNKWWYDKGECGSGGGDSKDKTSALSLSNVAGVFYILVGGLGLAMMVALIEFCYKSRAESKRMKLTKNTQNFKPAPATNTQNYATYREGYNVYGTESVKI

Biological target: AMPA receptor subunit GluA2 (rat (endogenous in primary hippocampal neurons)) (UniProt P19491)
Experiment: proximity ligation; fixed primary rat hippocampal neurons, control or sAPPα (1 nM; 30 min or 2 h); two N-terminal antibodies without permeabilisation; cell-surface GluA2/3

binding: binds
Substance: AMPA receptor subunit GluA3 (from UniProt P19492 23-888)
